# PubChem BioAssay AID1259405 – NCATS – 2018
# Purpose: 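Mouse-designed siRNAs used to find CHO productivity engineering targets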 (primary screen)
# System: Chinese hamster CHO-K1 ovary cells with stable secreted eGFP expression
# Knock-down reagent: single siRNA against mouse genes, 0.8 pmol siRNA per well (2 µl of 400 nM stock)
# Duration: 3 days
# Measurement: 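Per-well intracellular GFP measured by laser scanning cytometry, plus viability from ATP luminescence, each relative to plate median of non-targeting control wells, in %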
# Direction: GFP, % of control: higher = more GFP per well, higher productivity; viability (ATP), % of control: higher = more viable cells (more ATP)
# Rule for the call: 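a knock-down is called active if GFP reaches 120% or more of non-targeting control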
# The whole screen tested about 50,000 reagents; this is a part drawn at random. About 4,000 of all reagents (8%) count as active. 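Mouse siRNA library applied to hamster cells; one well for each siRNA.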 Entries without a mark were called inactive. The numbers tell different reagents against one gene apart. Reagent sequences are not shown.
Gene,reagent,"GFP, % of control","viability (ATP), % of control"
Nme4 (NME/NM23 nucleoside diphosphate kinase 4),1,109,96.7
Vmn1r200 (vomeronasal 1 receptor 200),1,120 (active),61.7
Vmn1r200 (vomeronasal 1 receptor 200),2,141 (active),69.1
Vmn1r200 (vomeronasal 1 receptor 200),3,115,110
Uevld (UEV and lactate/malate dehyrogenase domains),1,82.8,45
Uevld (UEV and lactate/malate dehyrogenase domains),2,77.6,101
Uevld (UEV and lactate/malate dehyrogenase domains),3,49.4,44.1
Acsm4 (acyl-CoA synthetase medium-chain family member 4),1,35.6,50
Acsm4 (acyl-CoA synthetase medium-chain family member 4),2,71.6,91.1
Acsm4 (acyl-CoA synthetase medium-chain family member 4),3,54.3,55.2
Or1j17 (olfactory receptor family 1 subfamily J member 17),1,60,67.3
Or1j17 (olfactory receptor family 1 subfamily J member 17),2,94.3,65.2
Or1j17 (olfactory receptor family 1 subfamily J member 17),3,45.4,69.1
Hes5 (hes family bHLH transcription factor 5),1,75.8,76
Hes5 (hes family bHLH transcription factor 5),2,87.7,37.1
Hes5 (hes family bHLH transcription factor 5),3,93.6,83.8
Gnl2 (guanine nucleotide binding protein nucleolar 2),1,93.1,92.3
Gnl2 (guanine nucleotide binding protein nucleolar 2),2,77.6,75.6
Gnl2 (guanine nucleotide binding protein nucleolar 2),3,92.3,94.9
Or51af1 (olfactory receptor family 51 subfamily AF member 1),1,89.9,60
Or51af1 (olfactory receptor family 51 subfamily AF member 1),2,72.2,91.1
Or51af1 (olfactory receptor family 51 subfamily AF member 1),3,47,44.4
Plbd2 (phospholipase B domain containing 2),1,84.9,105
Plbd2 (phospholipase B domain containing 2),2,85.1,59.9
Plbd2 (phospholipase B domain containing 2),3,103,44.4
Elk4 (ETS transcription factor ELK4),1,68.3,52.7
Elk4 (ETS transcription factor ELK4),2,122 (active),85.3
Elk4 (ETS transcription factor ELK4),3,84.9,98.7
Atl2 (atlastin GTPase 2),1,61.6,58.2
Atl2 (atlastin GTPase 2),2,51.6,65.2
Atl2 (atlastin GTPase 2),3,53.9,40.6
Gbx1 (gastrulation brain homeobox 1),1,135 (active),50.5
Gbx1 (gastrulation brain homeobox 1),2,71.4,68.7
Gbx1 (gastrulation brain homeobox 1),3,73,66.6
Eef2kmt (eukaryotic elongation factor 2 lysine methyltransferase),1,71.5,71.5
Eef2kmt (eukaryotic elongation factor 2 lysine methyltransferase),2,70,86.6
Eef2kmt (eukaryotic elongation factor 2 lysine methyltransferase),3,88.3,91.9
Slc9a2,1,68,72.3
Slc9a2,2,63.9,38.8
Slc9a2,3,85.4,88.7
Zfp386 (zinc finger protein 386 (Kruppel-like)),1,31.9,44.8
Zfp386 (zinc finger protein 386 (Kruppel-like)),2,60.4,60.4
Zfp386 (zinc finger protein 386 (Kruppel-like)),3,104,65.1
Etaa1 (Ewing tumor-associated antigen 1),1,119,87.5
Etaa1 (Ewing tumor-associated antigen 1),2,74.5,69.5
Etaa1 (Ewing tumor-associated antigen 1),3,119,115
Xpo5 (exportin 5),1,84,102
Xpo5 (exportin 5),2,140 (active),112
Xpo5 (exportin 5),3,43,60.4
Tpcn2 (two pore segment channel 2),1,108,61.7
Tpcn2 (two pore segment channel 2),2,75.5,52
Tpcn2 (two pore segment channel 2),3,113,126
Afm (afamin),1,90.7,102
Afm (afamin),2,86.3,121
Afm (afamin),3,91.4,66.3
4632415L05Rik (RIKEN cDNA 4632415L05 gene),1,46,49.9
4632415L05Rik (RIKEN cDNA 4632415L05 gene),2,78.9,95
4632415L05Rik (RIKEN cDNA 4632415L05 gene),3,76.8,101
Entpd4 (ectonucleoside triphosphate diphosphohydrolase 4),1,64.1,81.2
Entpd4 (ectonucleoside triphosphate diphosphohydrolase 4),2,107,77.5
Entpd4 (ectonucleoside triphosphate diphosphohydrolase 4),3,98.1,82
Slc12a8,1,85.2,97.5
Slc12a8,2,47.1,61.5
Slc12a8,3,128 (active),67.9
Jmy (junction-mediating and regulatory protein),1,45.2,60.9
Jmy (junction-mediating and regulatory protein),2,72.4,79
Jmy (junction-mediating and regulatory protein),3,79.9,86.8
Ppip5k2 (diphosphoinositol pentakisphosphate kinase 2),1,31,18.7
Ppip5k2 (diphosphoinositol pentakisphosphate kinase 2),2,77.2,92
Ppip5k2 (diphosphoinositol pentakisphosphate kinase 2),3,114,115
Stard7 (StAR related lipid transfer domain containing 7),1,76.6,72.3
Stard7 (StAR related lipid transfer domain containing 7),2,37.3,33.6
Stard7 (StAR related lipid transfer domain containing 7),3,65.5,60.5
Foxn4 (forkhead box N4),1,85.5,67.5
Foxn4 (forkhead box N4),2,45.7,55.3
"Fancm (Fanconi anemia, complementation group M)",1,72.7,103
"Fancm (Fanconi anemia, complementation group M)",2,90.6,84.1
"Fancm (Fanconi anemia, complementation group M)",3,132 (active),73.7
Zfp14 (zinc finger protein 14),1,61.7,55.3
Zfp14 (zinc finger protein 14),2,66.8,73.5
Zfp14 (zinc finger protein 14),3,108,95.3
Map3k4 (mitogen-activated protein kinase kinase kinase 4),1,102,98.8
Hccs (holocytochrome c synthetase),1,94,102
Hccs (holocytochrome c synthetase),2,93.7,70.7
Hccs (holocytochrome c synthetase),3,57.4,76.7
